From PubChem BioAssay AID1671190 (National Center for Advancing Translational Sciences (NCATS), 2021)
The campaign covered roughly 580,000 compounds. About 6,100 (1.1%) were called active. This list was built around the results that the source calls inconclusive (neither active nor inactive); the mix of calls is not that of the screen. Calls come from the whole dose curve; as a rule, active = well fitted inhibition curve with a large enough effect; inconclusive = small, poorly fitted or top-dose-only effect, or another doubt; inactive = no such curve, though single readings can be large or run the other way. Potencies beside an inconclusive call are fits to weak or partial responses and may not hold up.

Protein sequences, listed by entry. Tags and fused reporters are not part of them. Lines headed by an entry give the natural chain unless they say otherwise; changes in a name come on top.
UniProt P18054: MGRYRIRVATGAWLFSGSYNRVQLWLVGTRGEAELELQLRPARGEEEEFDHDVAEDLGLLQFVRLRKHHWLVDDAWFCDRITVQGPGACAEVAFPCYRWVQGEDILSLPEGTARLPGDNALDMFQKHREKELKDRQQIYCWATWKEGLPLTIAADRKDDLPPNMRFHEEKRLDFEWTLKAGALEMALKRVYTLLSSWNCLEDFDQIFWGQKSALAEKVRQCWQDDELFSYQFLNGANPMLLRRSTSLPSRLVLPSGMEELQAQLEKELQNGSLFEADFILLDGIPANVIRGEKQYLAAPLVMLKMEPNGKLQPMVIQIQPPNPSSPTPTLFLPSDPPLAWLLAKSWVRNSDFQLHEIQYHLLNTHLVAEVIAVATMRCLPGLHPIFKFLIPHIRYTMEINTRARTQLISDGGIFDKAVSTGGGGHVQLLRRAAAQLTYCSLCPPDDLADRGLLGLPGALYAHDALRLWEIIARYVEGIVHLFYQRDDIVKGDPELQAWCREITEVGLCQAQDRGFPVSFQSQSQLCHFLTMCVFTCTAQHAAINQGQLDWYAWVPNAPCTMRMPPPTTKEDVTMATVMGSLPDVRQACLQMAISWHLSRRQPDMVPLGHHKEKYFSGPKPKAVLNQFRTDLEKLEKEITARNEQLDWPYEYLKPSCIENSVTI

Molecular target: Polyunsaturated fatty acid lipoxygenase ALOX12 (Homo sapiens) (UniProt P18054)
Test: Primary qHTS assay for inhibitors of human arachidonate 12S-lipoxygenase (ALOX12): Round 2
Conditions: purified 12hLO, xylenol orange hydroperoxide absorbance; activity change, negative = inhibition: at 108 µM (top of the series) unless noted
Procedure, shortened: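 Purified human 12hLO (150 nM final) in 25 mM Hepes, 0.01% Triton X-100, pH 7.0 was preincubated 15 min at room temperature with compound. Then 40 uM arachidonic acid was added, 30 min. Hydroperoxide was read by Fe-XO absorbance ratio 573/405 nm.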
% is set by controls: 0 for no effect and ±100 for the full control effect; potency is the fitted concentration of half-maximal effect.

| SMILES | activity change, negative = inhibition | Potency |
| --- | --- | --- |
| COc1cccc(C2c3[nH]c4ccccc4c3CCN2Cc2cccn2-c2ncccn2)c1 (centres undefined) | inactive: -14.9% |  |
| O=C(c1ccccc1)N1CCn2c(nnc2C2CCNCC2)C1 |  | inconclusive: 6.31 µM [inhibitor, full curve, poor fit] |
| COc1ccc(-c2nnc(SC(C)C(=O)O)o2)cc1 (centres undefined) |  | inconclusive: 12.6 µM [inhibitor, partial curve, poor fit] |
| CCOc1ccccc1CN1CCN(S(C)(=O)=O)CC1 |  | inconclusive: 0.398 µM [inhibitor, full curve, poor fit] |
| CSc1ccc(-c2nc3cccc(C)n3c2Nc2ccc3c(c2)OCO3)cc1 |  | inconclusive: 56.2 µM [inhibitor, partial curve, poor fit] |
| CC(NC(=O)c1ccc(-c2ccccc2)cc1)C1CC2CCC1C2 (centres undefined) | inactive: 1.5% |  |
| CC(C)=CCCC(C)c1cc(C(=O)NCCc2ccc(O)cc2)c(N)s1 (centres undefined) |  | inconclusive: 31.6 µM [inhibitor, partial curve] |
| COc1cccc(/C=N/NC(=O)c2c(-c3ccccc3)noc2C)c1OC |  | inconclusive: 39.8 µM [inhibitor, single point] |
| CC(=O)c1cccc(NC(=O)C2CCCN(S(=O)(=O)c3cccc4cccnc34)C2)c1 (centres undefined) | inactive: 1.83% |  |
| CSc1ncccc1C(=O)OCc1ccc(Br)cc1 |  | inconclusive: 44.7 µM [inhibitor, partial curve, poor fit] |
| CC(C)N1C(=O)C2(CCCC2)C1C(=O)Nc1cccc(OC(F)(F)F)c1 (centres undefined) | inactive: 35.8% |  |
| O=C(NCCN1CCOCC1)c1ccc2c(c1)N(Cc1cccc(F)c1)C(=O)c1ccccc1S2 |  | inconclusive: 112 µM [inhibitor, single point] |
| COc1ccc(N/C(N)=N/c2nc(C)cc(=O)[nH]2)cc1 |  | inconclusive: 28.2 µM [inhibitor, single point] |
| Cc1cc(-c2ccc(S(=O)(=O)Nc3ccc(Cl)cc3)cc2)on1 |  | inconclusive: 44.7 µM [inhibitor, partial curve, poor fit] |
| CN(C)Cc1cc(CCNC(=O)c2ccc(Cl)cc2)ccc1O |  | inconclusive: 100 µM [inhibitor, single point] |
| NC(=O)c1ccc(COC(=O)c2ccc(Cl)cc2)cc1 | inactive: 6.66% |  |
| COc1cccc(C2C(C(=O)c3cc4ccccc4o3)=C(O)C(=O)N2CCN2CCOCC2)c1 (centres undefined) |  | inconclusive: 56.2 µM [inhibitor, partial curve, poor fit] |
| CCN(Cc1ccccc1)C(=O)C1CCN(S(=O)(=O)c2ccc3c(c2)OCCO3)CC1 | inactive: 2.42% |  |
| Cc1ccccc1NC(=O)Nc1cc(-c2ccccc2)nn1C |  | inconclusive: 15.8 µM [inhibitor, full curve] |
| Cc1cc(C)cc(NC(=S)NCC2CCN(C(C)c3ccccc3)C2)c1 (centres undefined) |  | inconclusive: 5.01 µM [inhibitor, partial curve, poor fit] |
| Cn1c(=O)c2c(ncn2CC(=O)Nc2nc3ccc(F)cc3s2)n(C)c1=O |  | inconclusive: 17.8 µM [inhibitor, partial curve, poor fit] |
| COc1cccc(NC(=O)N2CCN(C(=O)C(Cc3ccc(OC)c(OC)c3)NC(C)=O)CC2)c1 (centres undefined) | inactive: 1.67% |  |
| COc1ccc(-n2nc(C(=O)Nc3ccc(C(C)=O)cc3)nc2-c2ccccc2)cc1 |  | inconclusive: 44.7 µM [inhibitor, partial curve, poor fit] |

Looked up above:
activity change, negative = inhibition, CC(NC(=O)c1ccc(-c2ccccc2)cc1)C1CC2CCC1C2 (centres undefined) reads inactive: 1.5%
activity change, negative = inhibition, CC(C)N1C(=O)C2(CCCC2)C1C(=O)Nc1cccc(OC(F)(F)F)c1 (centres undefined) reads inactive: 35.8%
Potency, O=C(NCCN1CCOCC1)c1ccc2c(c1)N(Cc1cccc(F)c1)C(=O)c1ccccc1S2 reads inconclusive: 112 µM [inhibitor, single point]

(cont.)

| SMILES | activity change, negative = inhibition | Potency |
| --- | --- | --- |
| CCOC(=O)c1c(NC(=S)Nc2ccc(OC)cc2)sc2c1CCCCC2 | inactive: -17.4% |  |
| C/C(=N\NC(=O)c1ccc(C(=O)N/N=C(\C)c2ccco2)o1)c1ccco1 |  | inconclusive: 100 µM [inhibitor, partial curve, poor fit] |
| CC(C)CCNC(=O)CSc1nc2cc([N+](=O)[O-])ccc2o1 |  | inconclusive: 39.8 µM [inhibitor, partial curve, poor fit] |
| O=C(O)c1ccc(-c2ccc(CNC3CCCC3)o2)cc1 | inactive: -23.8% |  |
| Clc1ccccc1-c1noc(-c2ccco2)n1 | inactive: 19.8% |  |
| CNC(=O)CCn1ncc2cc(OC3CCc4cccc(-c5cccnc5)c43)ccc21 (centres undefined) | inactive: -3.71% [at 176 µM] |  |
| COCCCNC(=O)c1c[nH]c2ccc(S(=O)(=O)N(C)c3ccccc3C)cc2c1=O | inactive: -7.91% |  |
| CC(C)CCNC(=S)NC1CCCC1 |  | inconclusive: 63.1 µM [inhibitor, partial curve, poor fit] |
| CCOC(=O)C1=C(CP(=O)(c2ccccc2)c2ccccc2)NC(=O)NC1c1ccc(OC)cc1 (centres undefined) | inactive: -7.21% |  |
| COc1ccc(/C=C/C(=O)c2ccc[nH]2)cc1OC | inconclusive: -30.3% [inhibitor] |  |
| C/C(=N\NC(=O)c1cccs1)c1ccc2ccccc2c1 |  | inconclusive: 1.41 µM [inhibitor, partial curve, poor fit] |
| N#Cc1c(-n2ccnc2)cccc1-n1ccnc1 |  | inconclusive: 4.47 µM [inhibitor, full curve, poor fit] |
| Cc1ccc(OCCN(C)C(=O)c2ccc3[nH]c(C)c(C)c3c2)cc1 |  | inconclusive: 7.94 µM [inhibitor, partial curve, poor fit] |
| Cc1nc(SCC(=O)Nc2ccc(C)c(Cl)c2)cc(-c2ccccc2)n1 | inactive: 0% |  |
| O=C(CSc1cccc(C(F)(F)F)c1)NC(=O)NCc1ccco1 |  | inconclusive: 44.7 µM [inhibitor, partial curve] |
| Cc1ccccc1S(=O)(=O)N1CCCC(CCC(=O)NC2CC2)C1 (centres undefined) | inactive: 33.1% |  |
| COc1ccc(CN(Cc2ccco2)C(=O)COc2ccccc2OC)cc1 |  | inconclusive: 158 µM [inhibitor, single point] |
| O=C(N/N=C/c1ccco1)C1COc2ccccc2O1 (centres undefined) | inactive: -11% |  |
| CC1(C)Cc2ccccc2C(CSc2nc3c(c(C(F)(F)F)n2)CC(C(C)(C)C)CC3)=N1 (centres undefined) | inactive: 7.52% |  |
| CC(=O)c1cn(CC(=O)N2CCOCC2)c2ccccc12 | inactive: 5.98% |  |
| COc1ccccc1-n1cc(C(=O)c2cc(Cl)ccc2O)cc(C#N)c1=O |  | inconclusive: 100 µM [inhibitor, partial curve, poor fit] |
| Fc1ccc(C2=CC(c3cccc(Br)c3)n3nnnc3N2)cc1 (centres undefined) |  | inconclusive: 112 µM [inhibitor, partial curve, poor fit] |
| CCn1c(CNC(C)c2ccc(F)cc2)nc2cc(S(=O)(=O)N3CCCCC3)ccc21 (centres undefined) | inactive: -3.48% |  |

| SMILES | activity change, negative = inhibition | Potency |
| --- | --- | --- |
| O=C(O)c1ccc(NS(=O)(=O)c2ccc3c(c2)C2C=CCC2C(c2ccccc2F)N3)cc1 (centres undefined) |  | inconclusive: 44.7 µM [inhibitor, partial curve, poor fit] |
| O=C(O)/C=C/c1ccc(F)cc1 |  | inconclusive: 0.199 µM [inhibitor, full curve, poor fit] |
| CCCCN1C(=O)/C(=C/C=C2/C=Cc3ccccc3N2CC)SC1=S |  | inconclusive: 50.1 µM [inhibitor, partial curve, poor fit] |
| CCc1ccccc1-n1cnc2cc(C(=O)NC3CCCCCC3)ccc21 | inactive: -18.6% |  |
| Cc1ccc(O)c(-c2cc3ccccc3[nH]2)c1 |  | inconclusive: 50.1 µM [inhibitor, partial curve, poor fit] |
| COc1ccc(CCN(C)CC(O)COc2c(C)ccc(C)c2C)cc1OC (centres undefined) |  | inconclusive: 50.1 µM [inhibitor, partial curve, poor fit] |
| CCCCN(CCCC)Cc1cc(=O)oc2ccc3ccccc3c12 |  | active: 35.5 µM |
| Cc1c(Cl)cccc1N(CC(=O)NC1CCCCC1)S(C)(=O)=O |  | inconclusive: 63.1 µM [inhibitor, partial curve, poor fit] |
| O[C@H](COc1cccc(F)c1)CN1CCC(C(O)(c2ccccc2)c2ccccc2)CC1 |  | inconclusive: 44.7 µM [inhibitor, partial curve, poor fit] |
| N#C/C(=C/c1ccc(N2CCCCCC2)o1)c1cccc(F)c1 |  | inconclusive: 12.6 µM [inhibitor, full curve, poor fit] |
| O=C1C(=O)N(C(C(=O)NCc2ccccc2)C2CCCC2)c2ccccc21 (centres undefined) |  | inconclusive: 39.8 µM [inhibitor, partial curve] |
| OC(c1ccccc1)(c1nc(-c2ccc(Cl)cc2)cs1)C(F)(F)F (centres undefined) |  | inconclusive: 50.1 µM [inhibitor, partial curve, poor fit] |
| Cc1c(Br)c(=O)oc2c(Br)c(O)c(O)cc12 |  | active: 22.4 µM |
| Oc1ccc2ccccc2c1CN(Cc1ccccc1)Cc1ccccc1 |  | active: 3.16 µM |
| Nc1c(C(=O)NCc2ccco2)c2nc3ccccc3nc2n1CCc1ccccc1 |  | inconclusive: 25.1 µM [inhibitor, partial curve, poor fit] |
| CCOc1ccc(CNC2CCCCC2C)cc1 (centres undefined) |  | inconclusive: 50.1 µM [inhibitor, partial curve, poor fit] |
| CNCc1ccc(N2CCCC2)cc1 |  | inconclusive: 0.82 µM [inhibitor, full curve] |
| Cc1ccc(S(=O)(=O)NCCC(=O)OCC(=O)N(Cc2ccccc2)C(C)(C)C)cc1C | inactive: 0.651% |  |
| COc1ccc(C)cc1NC(=O)COc1ccc(-c2nnc3n2CCCC3)cc1 | inactive: 20.6% |  |
| CCOC(=O)C(CC)N1CCN(Cc2ccc(F)cc2)C(=O)C1=O (centres undefined) |  | inconclusive: 89.1 µM [inhibitor, partial curve, poor fit] |
| CC(=O)c1cccc(NC(=O)c2n[nH]c(=O)c3ccccc23)c1 | inactive: -74.1% |  |
| COc1ccc(-c2ccc(NS(=O)(=O)c3cc(C)c(C)cc3C)cc2)nn1 |  | inconclusive: 3.16 µM [inhibitor, full curve, poor fit] |
| O=C(NCC(O)c1ccccc1)c1ccc(CNS(=O)(=O)c2ccc(F)cc2)cc1 (centres undefined) |  | inconclusive: 141 µM [inhibitor, single point] |
